In publication PMC3325191 one finds binding data, which are given here for 4 molecules.

For the test, the target named is T1, GST-NHR-49 fusion protein (C. elegans) (UniProt O45666).
T1 sequence: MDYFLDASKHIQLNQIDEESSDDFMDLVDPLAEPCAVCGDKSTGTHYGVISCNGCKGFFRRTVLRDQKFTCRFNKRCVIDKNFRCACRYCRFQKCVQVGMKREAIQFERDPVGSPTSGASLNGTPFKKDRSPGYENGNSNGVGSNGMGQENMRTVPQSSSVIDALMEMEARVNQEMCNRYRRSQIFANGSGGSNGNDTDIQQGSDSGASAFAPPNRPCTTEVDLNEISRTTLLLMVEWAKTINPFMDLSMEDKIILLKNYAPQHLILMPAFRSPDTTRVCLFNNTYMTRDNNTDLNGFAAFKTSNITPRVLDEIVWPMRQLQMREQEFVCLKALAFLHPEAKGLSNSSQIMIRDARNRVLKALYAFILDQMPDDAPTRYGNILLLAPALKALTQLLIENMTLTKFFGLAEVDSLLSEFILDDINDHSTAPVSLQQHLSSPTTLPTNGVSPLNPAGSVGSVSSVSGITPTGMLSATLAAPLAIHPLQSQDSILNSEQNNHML
Description: pull-down; purified GST-NHR-49 on glutathione-Sepharose 4B beads incubated with in vitro translated 35S-methionine-labeled protein for 90 minutes at 37°C, washed in binding buffer; SDS-PAGE and autoradiography; GST alone as control; only the target purified.

These are yes or no findings as the source states them, for the method shown. In cells and extracts the contact can be indirect. Some binding calls cover weakened binding; strength is not graded here. Sequences can lack the tags named with a protein.

B1: in vitro translated 35S-methionine-labeled NHR-66 (protein, UniProt H2KYJ8 1-733)
chain: MPPINEPTATTTSASSVWQGMTQLKSQVDLINIARGILSTPATTSTSCLDIQNSTPIIGSLASGKSQTPILTATMTPQIGLTGLGSLTSLPPELLLQFARLDGFNLLPAVGSPAIPSSSSCSEPSTSQASTVVSAPTLPPPSPLTSLPQKPAPLMPSGHVTTVDQQNRQQHQQQQRQQQQAQQQNSMARKYSMDTIQHHTMQHPHQLQYIPNHFMTASTDVFAAMDMSQKQSSPPGIFKIVAAKNEPSSSSNSQPGTPAMGDRRAVPACAICGTDSTGIHFGVDACAACSAFFRRTVVLNKDYSCNKGGKCTVVKDGSAGQKCRACRFRKCISSGMDKNSVQHRRDAIGKYSAGVKRELSPDAEFEPSAKVSTVSEPSTSSGPSGGFNQNVSSPAGIPRVPSTLRTTQASTCMNSACGQKSVLHELICRQNFLTEQRQLFYAGCLGDWFRKPSSIENQTLSELTDFSSCMFHLWKIEPRLAADFMNRNRYLDPLPIVEKLKIYRNFVIMRQSVEEPYLTWRHGGLEKRWFVMPNNTYIDFNNIAKYFENGALKDLKLDYETTTNLFLPSFTHAMDTIGEKMKKNNITETELTILLGLVLLDPGIYGIHESTRKFLKRIRDQLIHDVYMYYEDEMSHLYDPEIRMADIFMLVAAIKIHSIKTSENMHMLRVFDLIPADACFNQMLDVESVNVSPDGQKDSEAEQGPSPVSVPEAARGSYQDDDMPPVLEKNCDL
modifications: 35S-methionine labeled
Regarding B1, the binding result is reported as “binds”.

B2: in vitro translated 35S-methionine-labeled NHR-80 (protein, UniProt Q8ITW8 1-504)
chain: MTAEGRYLEIRKKTVKSKFRFPASSSSTRCLICSAQATGFHFEAQSCSACAAFFRRTVALTKSFKCITGRDDCNVHYSMHQICRSCRHKKCLSNGMKPGGVQPKKPNIETGRAFFTKSGLKRNKKFANVSPQTADEQKLVVEGVKVPKIEVQEPNSLEDLEQDNEFVIKTPTPRKISSSTSFSASTTTNYSTPGPSPMAPCSAGPDVLTLFIREEMKLGERRRLLFSERAVGTLLGQNKHCPYKKEDIKPLVFHDFRLTIKTHIMLVYEWLQTWPELQELDDFDRMSLLRKAVLIHFLLDPSFLSYQIGEPDKLIMQNGGFISTADHHGVGWEDETDISGENKRKYYVPIMKQITDEIMPAMEAMKITFEEFVALKALACFQGGFENVSEAKRHLITQQVNRIMTSLHTHYLENSEEKIAERFGTIVLMLSNIFTAGNDFVQNHREIDIFHIWDLDKLVLQLLNLDKIMETEARETAEKRAMRNGINVVNNNNDVLLGQAKLEK
modifications: 35S-methionine labeled
As to B2, the binding entry is reported as “binds”.

B3: in vitro translated 35S-methionine-labeled NHR-13 (protein, UniProt Q9N4Q7 1-425)
chain: MPTNPNSCEVCSSSSNSSCNHFGARTCKACAAFFRRTVSMKLDYQCIDQPDACRVHCDSRVICRFCRLKKCHDIGMKPLLVKSKNERKNYIRISKGLIRKRSVLGDNVKENSEEIQNDDDPQESDAEMENESTPGPSSEPSENVSAENQETVTKFLKLEASMCDRRRLLYAETPISIVLESGKEWPYENAPLKMFDYKLSQGMSKHDFVMIMDYARGMPGFDEMNYADSVFCYRLVCAVDFVINSAYYTYKRGIEHNELVLSDGTFIPMVPTPLTGYEENANLLFQSQDDLMKFRTLMPLILHQWETCVPFAQLAPSHEEFCLLKAICVWHVSYYRLSEDGRRIAIAQRNRLIRALHHVCHLDSDDVGERFGNVMMALNYIMVNIRHVVSSFVMISFFGIINVDKSMISLTSFWNKSDTSTAPSL
modifications: 35S-methionine labeled
Consider B3, for which the binding result is given as “no binding”.

B4: in vitro translated 35S-methionine-labeled NHR-49 (protein, UniProt O45666 1-501)
chain: T1 sequence
modifications: 35S-methionine labeled
As for B4, the binding result is “binds”.
